Source: PubChem BioAssay AID1259254 (NCATS, 2017)

Assay: 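Finding genes that stop cells copying their DNA twice in one cycle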 (primary screen)
Cell system: human HCT116 colorectal cancer cells
Knock-down reagent: single siRNA against human genes
Duration: 3 days
Detection: 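Imaged Hoechst DNA stain sorts each cell into a cycle phase by DNA amount; per plate, G2 fraction set to 0% for non-targeting and 100% for GMNN siRNA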
Scale: G2 robust z-score and G2 cells, % of GMNN control: higher = more G2 cells, more excess DNA replication
Active means: 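An siRNA counts as active if its G2 robust z-score lies at least 5 MADs above the screen median; here such calls match roughly 38% of GMNN control or more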
The deposit covers about 59,000 reagents; below is a part drawn at random. Over the whole deposit, about 1,550 (2.6%) got an active call. 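G2 share is only a proxy for re-replication; each gene was hit by three separate siRNAs, and active genes were retested.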 The numbers tell different reagents against one gene apart. Not all columns of the deposit are shown. Reagent sequences are not shown. Not given: the amount of reagent.

PNN #1 → G2 robust z-score = 5.44; G2 cells, % of GMNN control = 41.2; outcome = active
PNN #2 → G2 robust z-score = -0.275; G2 cells, % of GMNN control = 1.03; outcome = inactive
PNN #3 → G2 robust z-score = 3.03; G2 cells, % of GMNN control = 24.3; outcome = inactive
PURA #1 → G2 robust z-score = -1.38; G2 cells, % of GMNN control = -6.75; outcome = inactive
PURA #2 → G2 robust z-score = -0.684; G2 cells, % of GMNN control = -1.85; outcome = inactive
PURA #3 → G2 robust z-score = -1.06; G2 cells, % of GMNN control = -4.5; outcome = inactive
OR51E1 #1 → G2 robust z-score = 0.648; G2 cells, % of GMNN control = 7.53; outcome = inactive
OR51E1 #2 → G2 robust z-score = -0.435; G2 cells, % of GMNN control = -0.092; outcome = inactive
OR51E1 #3 → G2 robust z-score = -0.469; G2 cells, % of GMNN control = -0.336; outcome = inactive
INTS13 #1 → G2 robust z-score = 0.00877; G2 cells, % of GMNN control = 3.03; outcome = inactive
INTS13 #2 → G2 robust z-score = 1.16; G2 cells, % of GMNN control = 11.1; outcome = inactive
INTS13 #3 → G2 robust z-score = -0.955; G2 cells, % of GMNN control = -3.75; outcome = inactive

Quoted from the listing (2 entries):
INTS13 #2 → G2 robust z-score = 1.16; G2 cells, % of GMNN control = 11.1; outcome = inactive
INTS13 #3 → G2 robust z-score = -0.955; G2 cells, % of GMNN control = -3.75; outcome = inactive
